Assay results from the supplement of paper PMC6143611.
Structures can show the parent of a compound that is named as a salt. ± gives the uncertainty stated by the source. The list shows a part of the results. Plates or batches differ in their baseline, so values are only roughly comparable.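 Larvae carried a heat-shock-induced fluorescent stripe in rod outer segments, set at 6 dpf; the shedding distance runs from this stripe to the outer segment tip, measured in confocal stacks, about three fish per compound. The controls got 0.2% DMSO vehicle, and the paper flagged compounds with at least a 20% change against the same-week control and p < 0.001 (Dunnett test on mixed-effects models).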

Tested on: Danio rerio larva rod photoreceptor outer segment
Assay: rod outer segment shedding distance Ds, difference from same-week DMSO control mean; higher = less outer segment shedding
Conditions: 20 µM; treatment time: 4 days (6-10 dpf)

Structure (SMILES) | rod outer segment shedding distance Ds
Cc1cc(NS(=O)(=O)c2ccc(N)cc2)no1 [Sulfamethoxazole] | -0.95 ± 0.27 um
CC(=O)N[C@@H](CS)C(=O)O [Acetylcysteine] | -0.1 ± 0.16 um
C#C[C@]1(O)CC[C@H]2[C@@H]3CCC4=CC(=O)CC[C@@H]4[C@H]3CC[C@@]21CC [Levonorgestrel] | 0.35 ± 0.17 um
CCCCc1nc(Cl)c(CO)n1Cc1ccc(-c2ccccc2-c2nnn[nH]2)cc1 [Losartan Potassium (DuP 753)] | 0.15 ± 0.24 um
O=P(O)(O)C(O)(Cn1ccnc1)P(=O)(O)O [Zoledronic Acid] | -0.9 ± 0.15 um
CCCCCCOC(=O)NC(=N)c1ccc(NCc2nc3cc(C(=O)N(CCC(=O)OCC)c4ccccn4)ccc3n2C)cc1 [Dabigatran Etexilate] | 0.66 ± 0.35 um
COc1cc(Nc2ncc3c(n2)-c2ccc(Cl)cc2C(c2c(F)cccc2OC)=NC3)ccc1C(=O)O [Alisertib (MLN8237)] | -1.22 ± 0.2 um
COc1c(C)c2c(c(O)c1C/C=C(\C)CCC(=O)O)C(=O)OC2 [Mycophenolic acid] | -0.03 ± 0.26 um
CS(=O)(=O)N1CCN(Cc2cc3nc(-c4cccc5[nH]ncc45)nc(N4CCOCC4)c3s2)CC1 | -0.26 ± 0.24 um
CO[C@@H]1[C@@H](OC(N)=O)[C@@H](O)[C@H](Oc2ccc3c(O)c(NC(=O)c4ccc(O)c(CC=C(C)C)c4)c(=O)oc3c2C)OC1(C)C [Novobiocin Sodium] | 0.92 ± 0.28 um
CN1CCc2c(c3ccccc3n2Cc2ccc(C(=O)NO)cc2)C1 [Tubastatin A HCl] | -0.26 ± 0.11 um
c1ccc(C2CN3CCSC3=N2)cc1 (single isomer, unassigned; (-)) [(-)-Tetramisole] | -0.9 ± 0.36 um
O=c1c(O)c(-c2ccc(O)c(O)c2)oc2cc(O)cc(O)c12 [Quercetin Dihydrate] | -3.75 ± 1.5 um
Cc1cc([C@@H](C)Nc2ccccc2C(=O)O)c2nc(N3CCOCC3)cc(=O)n2c1 | -0.13 ± 0.18 um
CN(C)Cc1ccc(-c2nc3cccc4c3n2CCNC4=O)cc1 | -0.09 ± 0.26 um
C[C@H]1C[C@H]2[C@@H]3CCC4=CC(=O)C=C[C@]4(C)[C@H]3C(=O)C[C@]2(C)[C@@]1(O)C(=O)CO [Meprednisone] | 0.1 ± 0.19 um
CN1C(C(=O)Nc2ccccn2)=C(O)c2sccc2S1(=O)=O [Tenoxicam] | 0.46 ± 0.31 um
Nc1nc(=O)[nH]cc1F [Flucytosine] | 0.3 ± 0.21 um
CCOCC(O)COc1ccc(NC(=O)CC[S+](C)C)cc1 (stereo not drawn) [Suplatast Tosylate] | -0.79 ± 0.26 um

Already shown: 3 of the compounds above.
Structure (SMILES) | rod outer segment shedding distance Ds
COc1c(C)c2c(c(O)c1C/C=C(\C)CCC(=O)O)C(=O)OC2 [Mycophenolic acid] | -0.03 ± 0.26 um
CS(=O)(=O)N1CCN(Cc2cc3nc(-c4cccc5[nH]ncc45)nc(N4CCOCC4)c3s2)CC1 | -0.26 ± 0.24 um
CO[C@@H]1[C@@H](OC(N)=O)[C@@H](O)[C@H](Oc2ccc3c(O)c(NC(=O)c4ccc(O)c(CC=C(C)C)c4)c(=O)oc3c2C)OC1(C)C [Novobiocin Sodium] | 0.92 ± 0.28 um

(listing goes on)

Structure (SMILES) | rod outer segment shedding distance Ds
CNC(=O)c1cccc(-c2ccc3c(N4CCOC[C@@H]4C)nc(N4CCOC[C@@H]4C)nc3n2)c1 | 0.12 ± 0.13 um
CO[C@H]1C[C@@H]2CC[C@@H](C)[C@@](O)(O2)C(=O)C(=O)N2CCCC[C@H]2C(=O)O[C@H]([C@H](C)C[C@@H]2CC[C@@H](OP(C)(C)=O)[C@H](OC)C2)CC(=O)[C@H](C)/C=C(\C)[C@@H](O)[C@@H](OC)C(=O)[C@H](C)C[C@H](C)/C=C/C=C/C=C/1C [Ridaforolimus (Deforolimus, MK-8669)] | -0.89 ± 0.24 um
C[C@H](CS)C(=O)N1CCC[C@H]1C(=O)O [Captopril] | -0.52 ± 0.27 um
Nc1[nH]cnc2ncnc1-2 [Adenine HCl] | 0.54 ± 0.22 um
CC(C)CN(C[C@@H](O)[C@H](Cc1ccccc1)NC(=O)O[C@H]1CCOC1)S(=O)(=O)c1ccc(N)cc1 [Amprenavir] | -0.44 ± 0.24 um
NC(=O)NO [Hydroxyurea] | 1.9 ± 0.3 um
Nc1ccc(C(=O)NCC(=O)O)cc1 [4-Aminohippuric Acid] | 0.01 ± 0.1 um
C[C@H](NCc1ccc(OCc2cccc(F)c2)cc1)C(N)=O [Safinamide Mesylate] | -0.75 ± 0.15 um
CC(C)(CO)c1cc2cc(NC(=O)C3(c4ccc5c(c4)OC(F)(F)O5)CC3)c(F)cc2n1C[C@@H](O)CO | 0.02 ± 0.13 um
Cc1cn(-c2cc(NC(=O)c3ccc(C)c(Nc4nccc(-c5cccnc5)n4)c3)cc(C(F)(F)F)c2)cn1 [Nilotinib (AMN-107)] | -1.01 ± 0.23 um
Cc1c(NC(=O)OC[C@@H]2COCCN2)cn2ncnc(Nc3ccc4c(cnn4Cc4cccc(F)c4)c3)c12 | -1.36 ± 0.29 um
O=C(O)Cc1ccccc1Nc1c(Cl)cccc1Cl [Diclofenac Sodium] | -0.22 ± 0.32 um
CCCCOc1ccc(CC(=O)NO)cc1 [Bufexamac] | 0.37 ± 0.17 um
C[C@H]1[C@H](NC(=O)/C(=N\OC(C)(C)C(=O)O)c2csc(N)n2)C(=O)N1S(=O)(=O)O [Aztreonam] | 0.51 ± 0.21 um
COc1ccc(-c2cc(=O)c3c(O)cc(O[C@@H]4O[C@H](CO[C@@H]5O[C@@H](C)[C@H](O)[C@@H](O)[C@H]5O)[C@@H](O)[C@H](O)[C@H]4O)cc3o2)cc1O [Diosmin] | 0.18 ± 0.35 um
COC(=O)Nc1nc2cc(C(=O)c3ccc(F)cc3)ccc2[nH]1 [Flubendazole] | -1.21 ± 0.25 um
Cc1nc(Nc2ncc(C(=O)Nc3c(C)cccc3Cl)s2)cc(N2CCN(CCO)CC2)n1 [Dasatinib] | -0.74 ± 0.24 um
CN(C)Cc1ccc(S(=O)(=O)n2ccc(/C=C/C(=O)NO)c2)cc1 [Resminostat] | 0.29 ± 0.13 um
COc1cc2nc(N3CCN(C(=O)C4CCCO4)CC3)nc(N)c2cc1OC (stereo not drawn) [Terazosin HCl] | -0.63 ± 0.25 um
